Values from PubChem BioAssay AID1224830 (NIAID, 2016)
Test: 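Genes whose knock-down alters the TNF-alpha reporter response to LPS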 (primary screen). Cells: human THP-1 monocytic leukaemia cells, TNF dual-luciferase reporter clone, PMA-differentiated to macrophage-like cells. Reagent: siRNA pool against human genes, 50 nM. Time to read-out: LPS for 4 h, given about 3 days after siRNA transfection. Conditions: bacterial LPS (TLR4 ligand), 10 ng/ml. Detection: 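TNF firefly reporter luminescence divided by renilla, normalised to the plate median, then turned into a robust z-score for each replicate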. Direction: TNF reporter robust z-score: higher = stronger TNF reporter response to LPS. Hit rule: 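Each well counts as active if its z-score is over 2.8 or under -1.5; controls are left without a call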.
Here is an unselected part of about 18,000 deposited reagents. About 2,900 of them (16%) count as active. 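Calls are made per well; low scores hint the gene aids the LPS response, high scores that it dampens it.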 Entries without a mark were called inactive. Repeated entries: four replicate wells of each siRNA pool. Reagent sequences are not shown.

With knock-down of FBXO4 (GeneID 26272) [SID315455752] the results were TNF reporter robust z-score -1.81 (active).
After knock-down of FBXO4 (GeneID 26272) [SID315455752] the results were TNF reporter robust z-score 1.18.
Against FBXO4 (GeneID 26272) [SID315455752] the deposit lists TNF reporter robust z-score 0.95.
With knock-down of FBXO4 (GeneID 26272) [SID315455752] the results were TNF reporter robust z-score 0.07.
GBA1 (GeneID 2629) [SID315448849] showed TNF reporter robust z-score -0.99.
GBA1 (GeneID 2629) [SID315448849] showed TNF reporter robust z-score -1.2.
With knock-down of GBA1 (GeneID 2629) [SID315448849], the screen gave TNF reporter robust z-score -0.34.
GBA1 (GeneID 2629) [SID315448849] showed TNF reporter robust z-score -0.24.
Depletion of SREK1 (GeneID 140890) [SID315462157] gave: TNF reporter robust z-score 2.05.
For SREK1 (GeneID 140890) [SID315462157], the entry reads TNF reporter robust z-score 1.21.
Knock-down of SREK1 (GeneID 140890) [SID315462157] came out at: TNF reporter robust z-score -0.87.
Silencing of BTG2 (GeneID 7832) [SID315452318] came out at: TNF reporter robust z-score -1.54 (active).
Depletion of BTG2 (GeneID 7832) [SID315452318] gave: TNF reporter robust z-score -0.92.
For BTG2 (GeneID 7832) [SID315452318], the values are TNF reporter robust z-score -0.18.
Silencing of BTG2 (GeneID 7832) [SID315452318] gave: TNF reporter robust z-score 0.32.
Against FKBP3 (GeneID 2287) [SID315448703] the deposit lists TNF reporter robust z-score 0.25.
With knock-down of FKBP3 (GeneID 2287) [SID315448703], the screen gave TNF reporter robust z-score 0.52.
FKBP3 (GeneID 2287) [SID315448703] scored TNF reporter robust z-score 0.04.
FKBP3 (GeneID 2287) [SID315448703] showed TNF reporter robust z-score 0.18.
With knock-down of SLC25A33 (GeneID 84275) [SID315460288], the record shows TNF reporter robust z-score 1.13.
SLC25A33 (GeneID 84275) [SID315460288] scored TNF reporter robust z-score 2.8 (active).
Depletion of SLC25A33 (GeneID 84275) [SID315460288] came out at: TNF reporter robust z-score 0.62.
SLC25A33 (GeneID 84275) [SID315460288] gave TNF reporter robust z-score 2.88 (active).
Knock-down of EFHB (GeneID 151651) [SID315462505] resulted in: TNF reporter robust z-score -1.25.
For EFHB (GeneID 151651) [SID315462505], the values are TNF reporter robust z-score 0.02.
With knock-down of EFHB (GeneID 151651) [SID315462505], the screen gave TNF reporter robust z-score 0.07.
After knock-down of EFHB (GeneID 151651) [SID315462505], the screen gave TNF reporter robust z-score 0.25.
With knock-down of EMB (GeneID 133418) [SID315461944], the record shows TNF reporter robust z-score -0.75.
After knock-down of EMB (GeneID 133418) [SID315461944] the results were TNF reporter robust z-score 0.21.
For EMB (GeneID 133418) [SID315461944] the deposit lists TNF reporter robust z-score -0.36.
After knock-down of EMB (GeneID 133418) [SID315461944] the results were TNF reporter robust z-score -0.26.
ATP13A5 (GeneID 344905) [SID315464183] gave TNF reporter robust z-score 0.08.
For ATP13A5 (GeneID 344905) [SID315464183], the values are TNF reporter robust z-score 1.49.
ATP13A5 (GeneID 344905) [SID315464183] gave TNF reporter robust z-score 2.72.
For ATP13A5 (GeneID 344905) [SID315464183], the values are TNF reporter robust z-score 2.71.
With knock-down of KRT18P55 (GeneID 284085) [SID315463733], the record shows TNF reporter robust z-score 0.13.
After knock-down of KRT18P55 (GeneID 284085) [SID315463733], the screen gave TNF reporter robust z-score 0.5.
Silencing of KRT18P55 (GeneID 284085) [SID315463733] gave: TNF reporter robust z-score 0.43.
With knock-down of KRT18P55 (GeneID 284085) [SID315463733], the screen gave TNF reporter robust z-score 0.3.
Knock-down of LDB3 (GeneID 11155) [SID315454644] resulted in: TNF reporter robust z-score -0.81.
For LDB3 (GeneID 11155) [SID315454644] the deposit lists TNF reporter robust z-score 0.2.
For LDB3 (GeneID 11155) [SID315454644] the deposit lists TNF reporter robust z-score 1.32.
LDB3 (GeneID 11155) [SID315454644] showed TNF reporter robust z-score -0.6.
For ALOX5AP (GeneID 241) [SID315447283] the deposit lists TNF reporter robust z-score -0.3.
Silencing of ALOX5AP (GeneID 241) [SID315447283] resulted in: TNF reporter robust z-score 2.19.
For ALOX5AP (GeneID 241) [SID315447283], the entry reads TNF reporter robust z-score -0.33.
For ALOX5AP (GeneID 241) [SID315447283], the values are TNF reporter robust z-score -0.2.
Depletion of LMX1A (GeneID 4009) [SID315449787] came out at: TNF reporter robust z-score -1.36.
With knock-down of LMX1A (GeneID 4009) [SID315449787] the results were TNF reporter robust z-score -1.33.
Depletion of LMX1A (GeneID 4009) [SID315449787] came out at: TNF reporter robust z-score -0.74.
Knock-down of LMX1A (GeneID 4009) [SID315449787] came out at: TNF reporter robust z-score -1.01.
Depletion of ZNF398 (GeneID 57541) [SID315458452] resulted in: TNF reporter robust z-score -0.8.
Against ZNF398 (GeneID 57541) [SID315458452], the entry reads TNF reporter robust z-score -0.1.
Against ZNF398 (GeneID 57541) [SID315458452], the values are TNF reporter robust z-score -0.74.
For ZNF398 (GeneID 57541) [SID315458452], the values are TNF reporter robust z-score -0.22.
Knock-down of C1QBP (GeneID 708) [SID315447604] resulted in: TNF reporter robust z-score -0.21.
With knock-down of C1QBP (GeneID 708) [SID315447604], the record shows TNF reporter robust z-score 0.69.
Silencing of C1QBP (GeneID 708) [SID315447604] came out at: TNF reporter robust z-score 2.51.
After knock-down of C1QBP (GeneID 708) [SID315447604], the screen gave TNF reporter robust z-score 0.03.
AHSP (GeneID 51327) [SID315456649] scored TNF reporter robust z-score 0.05.
For AHSP (GeneID 51327) [SID315456649], the entry reads TNF reporter robust z-score 0.59.
AHSP (GeneID 51327) [SID315456649] gave TNF reporter robust z-score 0.92.
For AHSP (GeneID 51327) [SID315456649], the entry reads TNF reporter robust z-score 0.23.
